Experimental data from PMC7918451.

Molecular target: T1, Interleukin-6 (IL-6) (UniProt P08505)
T1 sequence (looked up, limits assumed): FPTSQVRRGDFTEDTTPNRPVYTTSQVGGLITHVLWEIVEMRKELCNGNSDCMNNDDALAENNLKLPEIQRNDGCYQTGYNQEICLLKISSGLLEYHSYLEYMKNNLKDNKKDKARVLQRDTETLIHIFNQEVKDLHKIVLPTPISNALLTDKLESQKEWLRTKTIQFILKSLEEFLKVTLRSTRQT
Assay: GFET (graphene field-effect transistor), shift of charge neutrality point
Conditions: 1, 10, 100 nM IL-6, no significant shift; pyrene tag by same one-step protocol; 0.01x PBS with 2 mM MgCl2, pH ~7.4 (or adjusted to ~3.64), 10 min exposure per concentration, temperature not stated; aptamer immobilized on graphene; single-stranded DNA

## ATCAGGGCTAAAGAGTGCAGAGTTACTTAG [random sequence (scramble) aptamer, pyrene-tagged]
  binding result: no binding

No signal at the amounts used counts as a negative. Tags and fusion partners may be left off the protein sequences shown.
